Results from PubChem BioAssay AID493014 (National Center for Advancing Translational Sciences (NCATS), 2011).
The other results are listed elsewhere or left out. Shown are side measurements of this screen, not its main read-out; they come without a call. Compounds called inactive in the main read-out are mostly missing here. Words in brackets tell the shape of the fitted curve; partial curves, single points and poor fits give uncertain potencies.

Test: qHTS Assay to Find Inhibitors of Chronic Active B-Cell Receptor Signaling
Conditions: ABC-DLBCL IkBa-CBG/CBR reporter, luminescence ratio (green luciferase fused to IkBa over red control in TMD8 lymphoma cells), 4 h
In short: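 TMD8 ABC-DLBCL cells carrying doxycycline-inducible green luciferase fused to IkappaBalpha plus unfused red luciferase were exposed to compounds (up to 46 uM) for 4 hrs at 37C. Activity came from the overlap-corrected green/red luminescence ratio.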

[1] = measured here: IkBa-CBG green luminescence
[2] = measured here: CBR red luminescence, cell number

| Compound | AC50 [1] | AC50 [2] |
| --- | --- | --- |
| CC(C)c1ccc(S(=O)(=O)Nc2ccc(SC(F)F)cc2)cc1 | 16.4 µM [rising, partial curve, poor fit] |  |
| Cc1ccc2nc(NC3=NC(CC(=O)O)C(=O)N3)nc(C)c2c1 (stereo not given) |  | 6.31 µM [falling, single point] |
| COc1ccc(/C=C2\COc3ccccc3C2=O)c(OC)c1 |  | 35.5 µM [falling, single point] |
| O=c1[nH]c2ccccc2cc1-c1nnn(-c2ccc(F)cc2)n1 |  | 0.0891 µM [falling, full curve, poor fit] |
| CCN(CC)S(=O)(=O)c1ccc(Oc2ccccc2)cc1 |  | 0.326 µM [rising, full curve, poor fit] |
| COc1cc(OC)c(-c2nn3c(-c4ccncc4)nnc3s2)cc1OC |  | 11.2 µM [rising, partial curve, poor fit] |
| CCOC(=O)c1ccc2c(c1)nc(SCC(=O)c1cc3ccccc3o1)n2CC |  | 29.1 µM [rising, single point] |
| COCCOC1CCN(C(=O)c2cc(COc3ccc(F)cc3F)on2)CC1 |  | 35.5 µM [rising, single point] |
| C#Cc1ccc([C@H]2C=C(C(=O)NC3CC3)O[C@@H](OCC)[C@@H]2CCCO)cc1 |  | 6.31 µM [rising, single point] |
| COc1ccc2cc3c(N)nn(C(=O)c4cccc(F)c4)c3nc2c1 |  | 0.891 µM [falling, full curve] |
| CC1=C(C(=O)OCc2ccccc2)C(c2ccc3ccccc3c2)NC(=O)N1CCCCCC(=O)O (stereo not given) |  | 29.1 µM [falling, single point] |
| COc1cc(C(=O)OCC(=O)Nc2ccc(SC(F)F)cc2)cc(OC)c1OC |  | 29.1 µM [falling, single point] |
| COc1ccc2c(c1)[n+](=O)c(C(C)=O)c(C)n2[O-] |  | 18.4 µM [falling, partial curve, poor fit] |
| COc1cc(NC(=O)c2noc(C)c2[N+](=O)[O-])c(OC)cc1Cl |  | 5.01 µM [falling, partial curve, poor fit] |
| Cc1nc2ccccc2c(=O)n1NC(=O)Nc1ccccc1 |  | 6.51 µM [falling, single point] |
| COc1ccccc1N/N=C(\C#N)C(=N)N1CCOCC1 |  | 2.82 µM [falling, full curve, poor fit] |
| O=C1c2ccccc2C(=O)N1OCc1cccc(Cl)c1 |  | 20.6 µM [rising, partial curve] |
| COc1cccc(-c2nnc(NC(=O)C3CCCCC3)o2)c1 |  | 0.58 µM [falling, partial curve, poor fit] |
| O=C(OCCNc1nc(-c2ccccc2)nc2ccccc12)c1cccnc1 |  | 35.5 µM [falling, single point] |
| O=C(CCCN1C(=O)c2ccccc2C1=O)NCc1ccc(F)cc1 |  | 2.24 µM [rising, full curve, poor fit] |
| O=C(NCCc1c[nH]c2ccccc12)c1cnc2sccn2c1=O |  | 13 µM [falling, single point] |

In a second layout: results already given
COc1ccc2c(c1)[n+](=O)c(C(C)=O)c(C)n2[O-]
  AC50 [2]: 18.4 µM [falling, partial curve, poor fit]
COc1cc(NC(=O)c2noc(C)c2[N+](=O)[O-])c(OC)cc1Cl
  AC50 [2]: 5.01 µM [falling, partial curve, poor fit]
Cc1nc2ccccc2c(=O)n1NC(=O)Nc1ccccc1
  AC50 [2]: 6.51 µM [falling, single point]
COc1ccccc1N/N=C(\C#N)C(=N)N1CCOCC1
  AC50 [2]: 2.82 µM [falling, full curve, poor fit]

Two compounds picked at random from the list so far:

| Compound | AC50 [1] | AC50 [2] |
| --- | --- | --- |
| Cc1ccc2nc(NC3=NC(CC(=O)O)C(=O)N3)nc(C)c2c1 (stereo not given) |  | 6.31 µM [falling, single point] |
| COCCOC1CCN(C(=O)c2cc(COc3ccc(F)cc3F)on2)CC1 |  | 35.5 µM [rising, single point] |

Next records follow:

| Compound | AC50 [1] | AC50 [2] |
| --- | --- | --- |
| COc1ccc(/C=N/NC(=O)c2ccn[nH]2)cc1Cn1nc(C)c([N+](=O)[O-])c1C |  | 0.2 µM [falling, full curve, poor fit] |
| CCn1nc(NC(=O)C2CCCO2)c2cc3cc(C)ccc3nc21 (stereo not given) |  | 22.4 µM [falling, partial curve, poor fit] |
| Cc1nn2c(-c3ccccc3)ccnc2c1-c1ccccc1 |  | 3.66 µM [rising, partial curve, poor fit] |
| COc1ccc(CCC(C)NCc2cc(OC)cc(OC)c2)cc1 (stereo not given) |  | 1 µM [rising, full curve, poor fit] |
| O=C(NCCc1ccccc1)C1CCCN(C(=O)Nc2ccc(F)cc2)C1 (stereo not given) |  | 17.8 µM [rising, partial curve, poor fit] |
| N=c1oc2cc(O)ccc2cc1C(=O)Nc1nc2ccccc2s1 |  | 0.0517 µM [falling, full curve] |
| Cc1nc2sccn2c(=O)c1CCN1CCC(=C(c2ccccc2)c2ccc(F)cc2)CC1 |  | 6.51 µM [rising, single point] |
| CC1CCCCN1C(=O)NC12CC3CC(CC(C3)C1)C2 (stereo not given) |  | 20.6 µM [falling, single point] |
| CC(NC(=O)COC(=O)CNC(=O)c1ccccc1Cl)C1CC2CCC1C2 (stereo not given) |  | 23.1 µM [rising, single point] |
| Cn1c(N)c(C(=O)COC(=O)CCCc2c[nH]c3ccccc23)c(=O)n(C)c1=O |  | 5.01 µM [falling, partial curve, poor fit] |
| Cc1c(C(=O)OC2CCC(C)CC2)[nH]c2c1C(=O)CCC2 (stereo not given) |  | 0.291 µM [rising, full curve, poor fit] |
| N#CCC(=O)Nc1ccc(C(=O)OCC(=O)N2CCCC2=O)cc1 |  | 20.6 µM [falling, single point] |
| COc1ccc(-c2oc3ccccc3c2C(=O)OCc2ccccc2)cc1 |  | 14.1 µM [rising, partial curve] |
| COCCN(Cc1nc(-c2ccc(-c3ccccc3)cc2)oc1C)C(C)C |  | 0.316 µM [falling, full curve] |
| CC1CCCCN1CCNC(=O)c1ccc2c(=O)n(Cc3ccc(Cl)cc3)c(=S)[nH]c2c1 (stereo not given) |  | 17.8 µM [falling, single point] |
| COc1ccc(S(=O)(=O)N(CCc2ccccc2)CC(=O)NC(C)C)cc1 |  | 0.103 µM [falling, full curve, poor fit] |
| Clc1ccc(-c2nc3nc4ccccc4nc3n2Cc2ccco2)cc1 | 25.9 µM [rising, partial curve, poor fit] | 8.2 µM [falling, partial curve] |
| O=C(COc1cc2oc(=O)cc(-c3ccccc3)c2cc1Cl)NCC1CCC(C(=O)O)CC1 (stereo not given) |  | 7.08 µM [rising, partial curve] |
| COc1ccc(C(=O)/C=C/c2ccc(OC)c(Cn3nnc4ccccc43)c2)cc1 | 23.1 µM [falling, partial curve, poor fit] | 20.6 µM [falling, partial curve, poor fit] |
| Nc1ccccc1C(=O)N/N=C1/C2CN3CCN(C2)CC1(Cc1ccccc1)C3 |  | 11.2 µM [falling, partial curve, poor fit] |
| CC(C)[C@H](NC(=O)c1ccccc1F)C(=O)NC1CCCCC1 |  | 0.0058 µM [falling, full curve, poor fit] |

| Compound | AC50 [1] | AC50 [2] |
| --- | --- | --- |
| O=C(CN1CCN(Cc2ccccc2)CC1)Nc1ccc([N+](=O)[O-])cc1C(=O)Nc1ccccc1F |  | 0.82 µM [rising, full curve, poor fit] |
| COc1ccc(NS(=O)(=O)c2ccc(-n3nnc4ccccc43)c([N+](=O)[O-])c2)cc1 |  | 0.13 µM [falling, full curve, poor fit] |
| COc1ccc(CN2CCN(C(=O)c3cccc4ccccc34)CC2)c(OC)c1OC |  | 2.24 µM [rising, full curve, poor fit] |
| COc1ccc(C(=O)NN=C2CCCC2)cc1OC |  | 10 µM [falling, partial curve, poor fit] |
| Cn1c(=O)c(C(=O)NNC(=O)c2ccc(Br)cc2)c(O)c2ccccc21 |  | 8.91 µM [falling, partial curve, poor fit] |
| COc1cccc(N2CCN(c3ccc(S(=O)(=O)N4CCN(C)CC4)cc3[N+](=O)[O-])CC2)c1 |  | 29.1 µM [falling, single point] |
| Cc1nc2ccc(C(=O)N/N=C/c3ccc(O)cc3)cc2[nH]1 |  | 7.94 µM [falling, partial curve, poor fit] |
| Cc1csc(NC(=O)CSC2=NS(=O)(=O)c3ccccc3N2)n1 |  | 14.6 µM [falling, partial curve] |
| Cc1oc2cc(O)cc(O)c2c(=O)c1-c1ccc2c(c1)OCCCO2 |  | 2 µM [rising, full curve, poor fit] |
| O=C(COC(=O)C1CC1)Nc1ccc(Oc2ccccc2)cc1 |  | 2.51 µM [rising, single point] |
| N#C/C(=C/c1ccccc1OCc1ccc(F)cc1)c1ccc(C(=O)O)cc1 |  | 15.8 µM [rising, partial curve, poor fit] |
| Fc1ccccc1/C=N/n1c(C2CCCCC2)n[nH]c1=S |  | 12.6 µM [rising, partial curve] |
| COC(=O)c1c(N)n(-c2ccc(N3CCOCC3)cc2)c2nc3ccccc3nc12 |  | 7.08 µM [rising, full curve, poor fit] |
| CCN1C(=O)/C(=C/c2ccc(OCc3ccc(C(=O)O)cc3)c(Cl)c2)NC1=S |  | 12.6 µM [falling, partial curve, poor fit] |
| Cc1cc(SCC(=O)NN)c2cc(Br)ccc2n1 |  | 17.8 µM [falling, single point] |
| C#CCOc1ccc(Br)cc1/C=N/O |  | 0.651 µM [rising, full curve] |
| CN(C)c1oc(-c2ccccc2Cl)nc1C#N |  | 16.4 µM [rising, single point] |
| CCOc1cccc2cc(-c3cn4c(n3)sc3cc(C)ccc34)c(=O)oc12 |  | 0.316 µM [falling, full curve, poor fit] |
| O=C(Nc1ccc(N2CCOCC2)nc1)c1ccccc1Cl |  | 14.1 µM [falling, partial curve, poor fit] |
| COC(=O)C(Cc1ccccc1)NC(=O)c1ccc(NS(=O)(=O)c2ccc3[nH]c(=O)[nH]c3c2)cc1 (stereo not given) |  | 20.6 µM [rising, single point] |
| COc1ccc2c(-c3ccc(OCCN4CCCCC4)cc3)c(-c3ccccc3OC)sc2c1 |  | 20.6 µM [falling, single point] |
